Test results from publication doi:10.1101/681668 (bioRxiv, 2019).
These are yes or no findings as the source states them, for the method shown. Binding seen in cells or lysates may run through a third protein. Some results given as binding are weak or reduced against the parent protein; the word gives no strength. For some assays here: Where a sequence is shown, tags or fusion partners need not be part of it.

Amino acid sequences for entries named in this document (tags omitted).
UniProt P62136: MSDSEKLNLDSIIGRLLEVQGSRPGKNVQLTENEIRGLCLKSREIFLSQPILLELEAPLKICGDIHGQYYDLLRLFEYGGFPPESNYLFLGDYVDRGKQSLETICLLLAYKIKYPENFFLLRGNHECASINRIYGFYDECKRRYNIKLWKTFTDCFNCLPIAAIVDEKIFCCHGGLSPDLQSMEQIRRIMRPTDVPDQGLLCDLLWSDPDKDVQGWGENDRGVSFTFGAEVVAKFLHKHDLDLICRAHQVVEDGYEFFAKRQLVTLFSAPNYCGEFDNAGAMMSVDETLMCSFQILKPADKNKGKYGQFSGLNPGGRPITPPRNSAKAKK

T1: ORC1 (human (endogenous in HeLa, U2OS, HEK293)) (UniProt Q13415)
T1 sequence: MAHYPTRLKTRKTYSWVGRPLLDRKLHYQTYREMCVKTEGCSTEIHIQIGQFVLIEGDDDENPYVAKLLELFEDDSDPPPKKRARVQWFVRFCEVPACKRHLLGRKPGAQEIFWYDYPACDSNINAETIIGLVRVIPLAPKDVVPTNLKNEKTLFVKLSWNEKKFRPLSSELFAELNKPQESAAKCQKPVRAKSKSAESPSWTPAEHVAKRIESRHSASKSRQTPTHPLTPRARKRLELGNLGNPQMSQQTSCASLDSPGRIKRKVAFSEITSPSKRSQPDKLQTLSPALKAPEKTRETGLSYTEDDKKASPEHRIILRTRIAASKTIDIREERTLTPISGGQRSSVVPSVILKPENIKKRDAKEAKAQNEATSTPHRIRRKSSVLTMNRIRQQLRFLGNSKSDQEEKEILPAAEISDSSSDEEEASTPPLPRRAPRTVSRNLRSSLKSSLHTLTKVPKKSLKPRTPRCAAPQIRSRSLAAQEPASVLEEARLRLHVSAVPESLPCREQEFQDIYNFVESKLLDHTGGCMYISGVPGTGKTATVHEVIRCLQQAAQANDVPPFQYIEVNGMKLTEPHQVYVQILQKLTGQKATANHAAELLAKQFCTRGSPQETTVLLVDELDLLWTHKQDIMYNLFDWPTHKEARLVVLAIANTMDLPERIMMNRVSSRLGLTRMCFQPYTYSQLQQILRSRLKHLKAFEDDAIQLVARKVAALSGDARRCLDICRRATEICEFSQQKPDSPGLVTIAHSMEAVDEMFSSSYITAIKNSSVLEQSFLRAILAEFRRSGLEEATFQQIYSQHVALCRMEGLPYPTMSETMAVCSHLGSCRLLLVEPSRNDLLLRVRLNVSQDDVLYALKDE

B1: GFP-ORC1 WT (HEK293, transient) (protein, UniProt Q13415 1-861)
chain: MAHYPTRLKTRKTYSWVGRPLLDRKLHYQTYREMCVKTEGCSTEIHIQIGQFVLIEGDDDENPYVAKLLELFEDDSDPPPKKRARVQWFVRFCEVPACKRHLLGRKPGAQEIFWYDYPACDSNINAETIIGLVRVIPLAPKDVVPTNLKNEKTLFVKLSWNEKKFRPLSSELFAELNKPQESAAKCQKPVRAKSKSAESPSWTPAEHVAKRIESRHSASKSRQTPTHPLTPRARKRLELGNLGNPQMSQQTSCASLDSPGRIKRKVAFSEITSPSKRSQPDKLQTLSPALKAPEKTRETGLSYTEDDKKASPEHRIILRTRIAASKTIDIREERTLTPISGGQRSSVVPSVILKPENIKKRDAKEAKAQNEATSTPHRIRRKSSVLTMNRIRQQLRFLGNSKSDQEEKEILPAAEISDSSSDEEEASTPPLPRRAPRTVSRNLRSSLKSSLHTLTKVPKKSLKPRTPRCAAPQIRSRSLAAQEPASVLEEARLRLHVSAVPESLPCREQEFQDIYNFVESKLLDHTGGCMYISGVPGTGKTATVHEVIRCLQQAAQANDVPPFQYIEVNGMKLTEPHQVYVQILQKLTGQKATANHAAELLAKQFCTRGSPQETTVLLVDELDLLWTHKQDIMYNLFDWPTHKEARLVVLAIANTMDLPERIMMNRVSSRLGLTRMCFQPYTYSQLQQILRSRLKHLKAFEDDAIQLVARKVAALSGDARRCLDICRRATEICEFSQQKPDSPGLVTIAHSMEAVDEMFSSSYITAIKNSSVLEQSFLRAILAEFRRSGLEEATFQQIYSQHVALCRMEGLPYPTMSETMAVCSHLGSCRLLLVEPSRNDLLLRVRLNVSQDDVLYALKDE
B2: GFP-ORC1 Δ260-280 (HEK293, transient) (protein, UniProt Q13415)
chain: MAHYPTRLKTRKTYSWVGRPLLDRKLHYQTYREMCVKTEGCSTEIHIQIGQFVLIEGDDDENPYVAKLLELFEDDSDPPPKKRARVQWFVRFCEVPACKRHLLGRKPGAQEIFWYDYPACDSNINAETIIGLVRVIPLAPKDVVPTNLKNEKTLFVKLSWNEKKFRPLSSELFAELNKPQESAAKCQKPVRAKSKSAESPSWTPAEHVAKRIESRHSASKSRQTPTHPLTPRARKRLELGNLGNPQMSQQTSCASLDSPDKLQTLSPALKAPEKTRETGLSYTEDDKKASPEHRIILRTRIAASKTIDIREERTLTPISGGQRSSVVPSVILKPENIKKRDAKEAKAQNEATSTPHRIRRKSSVLTMNRIRQQLRFLGNSKSDQEEKEILPAAEISDSSSDEEEASTPPLPRRAPRTVSRNLRSSLKSSLHTLTKVPKKSLKPRTPRCAAPQIRSRSLAAQEPASVLEEARLRLHVSAVPESLPCREQEFQDIYNFVESKLLDHTGGCMYISGVPGTGKTATVHEVIRCLQQAAQANDVPPFQYIEVNGMKLTEPHQVYVQILQKLTGQKATANHAAELLAKQFCTRGSPQETTVLLVDELDLLWTHKQDIMYNLFDWPTHKEARLVVLAIANTMDLPERIMMNRVSSRLGLTRMCFQPYTYSQLQQILRSRLKHLKAFEDDAIQLVARKVAALSGDARRCLDICRRATEICEFSQQKPDSPGLVTIAHSMEAVDEMFSSSYITAIKNSSVLEQSFLRAILAEFRRSGLEEATFQQIYSQHVALCRMEGLPYPTMSETMAVCSHLGSCRLLLVEPSRNDLLLRVRLNVSQDDVLYALKDE
B3: GFP-ORC1 PP1^mut (HEK293, transient) (protein, UniProt Q13415 1-861)
chain: MAHYPTRLKTRKTYSWVGRPLLDRKLHYQTYREMCVKTEGCSTEIHIQIGQFVLIEGDDDENPYVAKLLELFEDDSDPPPKKRARVQWFVRFCEVPACKRHLLGRKPGAQEIFWYDYPACDSNINAETIIGLVRVIPLAPKDVVPTNLKNEKTLFVKLSWNEKKFRPLSSELFAELNKPQESAAKCQKPVRAKSKSAESPSWTPAEHVAKRIESRHSASKSRQTPTHPLTPRARKRLELGNLGNPQMSQQTSCASLDSPGRIKRKAAASEITSPSKRSQPDKLQTLSPALKAPEKTRETGLSYTEDDKKASPEHRIILRTRIAASKTIDIREERTLTPISGGQRSSVVPSVILKPENIKKRDAKEAKAQNEATSTPHRIRRKSSVLTMNRIRQQLRFLGNSKSDQEEKEILPAAEISDSSSDEEEASTPPLPRRAPRTVSRNLRSSLKSSLHTLTKVPKKSLKPRTPRCAAPQIRSRSLAAQEPASVLEEARLRLHVSAVPESLPCREQEFQDIYNFVESKLLDHTGGCMYISGVPGTGKTATVHEVIRCLQQAAQANDVPPFQYIEVNGMKLTEPHQVYVQILQKLTGQKATANHAAELLAKQFCTRGSPQETTVLLVDELDLLWTHKQDIMYNLFDWPTHKEARLVVLAIANTMDLPERIMMNRVSSRLGLTRMCFQPYTYSQLQQILRSRLKHLKAFEDDAIQLVARKVAALSGDARRCLDICRRATEICEFSQQKPDSPGLVTIAHSMEAVDEMFSSSYITAIKNSSVLEQSFLRAILAEFRRSGLEEATFQQIYSQHVALCRMEGLPYPTMSETMAVCSHLGSCRLLLVEPSRNDLLLRVRLNVSQDDVLYALKDE
B4: ORC3 (protein, UniProt Q9UBD5 1-711)
chain: MATSSMSKGCFVFKPNSKKRKISLPIEDYFNKGKNEPEDSKLRFETYQLIWQQMKSENERLQEELNKNLFDNLIEFLQKSHSGFQKNSRDLGGQIKLREIPTAALVLGVNVTDHDLTFGSLTEALQNNVTPYVVSLQAKDCPDMKHFLQKLISQLMDCCVDIKSKEEESVHVTQRKTHYSMDSLSSWYMTVTQKTDPKMLSKKRTTSSQWQSPPVVVILKDMESFATKVLQDFIIISSQHLHEFPLILIFGIATSPIIIHRLLPHAVSSLLCIELFQSLSCKEHLTTVLDKLLLTTQFPFKINEKVLQVLTNIFLYHDFSVQNFIKGLQLSLLEHFYSQPLSVLCCNLPEAKRRINFLSNNQCENIRRLPSFRRYVEKQASEKQVALLTNERYLKEETQLLLENLHVYHMNYFLVLRCLHKFTSSLPKYPLGRQIRELYCTCLEKNIWDSEEYASVLQLLRMLAKDELMTILEKCFKVFKSYCENHLGSTAKRIEEFLAQFQSLDETKEEEDASGSQPKGLQKTDLYHLQKSLLEMKELRRSKKQTKFEVLRENVVNFIDCLVREYLLPPETQPLHEVVYFSAAHALREHLNAAPRIALHTALNNPYYYLKNEALKSEEGCIPNIAPDICIAYKLHLECSRLINLVDWSEAFATVVTAAEKMDANSATSEEMNEIIHARFIRAVSELELLGFIKPTKQKTDHVARLTWGGC

How the values were obtained:
[1] = molecular target: T1, ORC1 (human (endogenous in HeLa, U2OS, HEK293)); test: co-IP
T7-PP1α = T7-PP1α (UniProt P62136); test: co-IP

Molecule | binding [1] | binding (T7-PP1α)
protein phosphatase PP1 (from UniProt P62136 1-330) (enzyme) | binds | –
B1 | – | binds
B2 | – | no binding
B3 | – | no binding
B4 | – | no binding
